SMILES strings stand for the structures. Some results come without the dose or concentration used.

The subject of this data set is HH signaling (HEK293a SHH+ conditioned media on SHH-Light2 cells). The data set is described as follows: Light2 dual-luciferase cell-based HH signaling assay (Firefly). Conditions: from cell-signaling EC50 and clogDpH7.4.
`CC(C)CNCC(=O)N1CCc2ccccc2C1c1ccccc1` (stereo in doubt) [Compound 43, (R)-2-((2-Methylpropyl)amino)-1-(1-phenyl-3,4-dihydroisoquinolin-2(1H)-yl)ethan-1-one]: the LLELight2 was found to be 4.18.

`CC(=O)N1CCc2sccc2C1c1ccccc1` (stereo not drawn) [Compound 5] returned an LLELight2 of 2.46.

Regarding `C=CCNCC(=O)N1CCc2sccc2C1c1ccccc1` (stereo not drawn) [Compound 12, 2-(Allylamino)-1-(4-phenyl-6,7-dihydrothieno[3,2-c]pyridin-5(4H)-yl)ethan-1-one], the LLELight2 was determined as 3.29.

Take `C=CC(=O)N1CCc2sccc2C1c1cccc(C)c1` (stereo not drawn) [Compound 16]: the LLELight2 was determined as 1.38.

`CCC(C)CNCC(=O)N1CCc2sccc2C1c1cccc(C)c1` (stereo not drawn) [Compound 17] gave an LLELight2 of 3.17.

The compound `CCC(C)CNCC(=O)N1CCc2sccc2C1c1ccccn1` (stereo not drawn) [Compound 19, 2-(2-Methylbutylamino)-1-[4-(pyridin-2-yl)-6,7-dihydro-4H-thieno[3,2-c]pyridin-5-yl]ethanone] yielded an LLELight2 of 4.98.

For the compound `CC(=O)N1CCc2sccc2C1c1cccc(C)n1` (stereo not drawn) [Compound 21], the LLELight2 was found to be 3.23.

Regarding `CCC(C)CNCC(=O)N1CCc2sccc2C1c1cccc(C)n1` (stereo not drawn) [Compound 22], the LLELight2 is 4.85.

Compound `CC[C@H](C)CNCC(=O)N1CCc2sccc2C1c1cccc(C)n1` (stereo partly drawn) [Compound 23] displayed an LLELight2 of 4.41.

Compound `Cc1cccc(C2c3ccsc3CCN2C(=O)CNCC(C)C)n1` (stereo not drawn) [Compound 24] gave an LLELight2 of 4.95.

In turn, `Cc1cccc(C2c3ccsc3CCN2C(=O)CNCCC(C)C)n1` (stereo not drawn) [Compound 25] had an LLELight2 of 3.93.

In turn, `CC(=O)N1CCc2sccc2[C@@H]1c1cccc(C)n1` [Compound 29, (R)-1-(4-(6-Methylpyridin-2-yl)-6,7-dihydrothieno[3,2-c]pyridin-5(4H)-yl)ethan-1-one] came in with an LLELight2 of 3.86.

For the compound `Cc1cccc([C@H]2c3ccsc3CCN2C(=O)CNCC(C)C)n1` [Compound 30], the LLELight2 is 6.02.

The compound `CC(C)CNCC(=O)N1CCc2ccccc2C1c1ccccc1` (stereo not drawn) [Compound 39, 2-((2-Methylpropyl)amino)-1-(1-phenyl-3,4-dihydroisoquinolin-2(1H)-yl)ethan-1-one] displayed an LLELight2 of 3.67.

For `CCC(C)CNCC(=O)N1CCc2ccc(Cl)cc2C1c1ccccc1` (stereo not drawn) [Compound 45, 1-(7-Chloro-1-phenyl-3,4-dihydroisoquinolin-2(1H)-yl)-2-((2-methylbutyl)amino)ethan-1-one], the LLELight2 is listed as 2.25.

Source of the values: PMC10823475, “Design, Synthesis, and Evaluation of Inhibitors of Hedgehog Acyltransferase” (Journal of Medicinal Chemistry, 2024).
